Measured values: the supplement of paper PMC3334620
The full ranking holds about 33,000 sequences; the median of “E-score (-0.5 to 0.5)” is about -0.0034, and the highest 2% start at about 0.25. This is one part of the list.

These sequences were tested against T1, Yap3 (UniProt P38749) (assay: PBM E-score (8-mer binding enrichment) (E-score (-0.5 to 0.5)); higher = stronger / more preferred TF binding). Details: protein concentration: 100 nM; construct: GST-full length.
T1 sequence: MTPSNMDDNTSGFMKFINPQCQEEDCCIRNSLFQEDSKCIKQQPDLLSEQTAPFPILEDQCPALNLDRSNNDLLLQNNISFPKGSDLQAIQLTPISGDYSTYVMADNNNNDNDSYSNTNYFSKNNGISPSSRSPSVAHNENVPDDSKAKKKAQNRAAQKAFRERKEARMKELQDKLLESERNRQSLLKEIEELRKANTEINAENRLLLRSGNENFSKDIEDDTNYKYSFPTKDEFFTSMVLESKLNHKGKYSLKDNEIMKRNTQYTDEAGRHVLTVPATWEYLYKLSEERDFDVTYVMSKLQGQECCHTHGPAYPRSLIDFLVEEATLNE
Method in brief: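 GST-tagged yeast TFs (full-length or DNA-binding domain) were made by PURExpress in vitro transcription/translation and applied at about 100-200 nM to universal all-10-mer Agilent arrays. The arrays were made double-stranded by primer extension, on fresh or once-stripped slides. Bound protein was detected with fluorescent anti-GST, and scans were normalised with masliner. Each ungapped eight-base word, pooled with its reverse complement, received an E-score (modified Wilcoxon-Mann-Whitney statistic) from the Universal PBM Analysis Suite.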

| Sequence | PBM E-score |
| --- | --- |
| CCATGACA | 0.113 |
| CTGCTGGA | -0.158 |
| CGACATTC | 0.0117 |
| AGAGTACT | 0.0593 |
| CAACTTGG | 0.145 |
| AGGGTGAG | -0.175 |
| GACCTTAA | -0.113 |
| CTATATCC | 0.119 |
| AGGGTGAC | 0.0105 |
| ATATCCTC | 0.199 |
| GTGACCAA | 0.0953 |
| ATGATACG | 0.207 |
| CTCTGGCC | -0.263 |
| GACGGGAA | -0.00643 |
| GAAGTCCC | -0.26 |
| ACCGGCCG | -0.114 |
| TGTACCAA | 0.0503 |
| GAACCCAC | 0.028 |
| AGAGTTGA | 0.0468 |
| CATTTCTA | 0.11 |
| AGATTTCG | 0.0612 |
| AGCTAGCG | -0.0438 |
| ATACGTCC | -0.169 |
| AGGATACC | -0.0219 |
| AGGCACTA | -0.127 |

Reprinted at random: 4 entries already listed

| Sequence | PBM E-score |
| --- | --- |
| CTCTGGCC | -0.263 |
| AGGGTGAG | -0.175 |
| AGAGTACT | 0.0593 |
| CAACTTGG | 0.145 |

Remaining list, next part:

| Sequence | PBM E-score |
| --- | --- |
| AATCAATT | 0.256 |
| AAACACGT | 0.0575 |
| ACAAGTCG | -0.189 |
| ACAGATCC | 0.145 |
| AGGTGGAA | 0.0811 |
| CCTATAAG | 0.0487 |
| AGTTTAGA | 0.182 |
| GTAACGTA | 0.0751 |
| CTTTATCC | 0.00568 |
| ATTGGCTA | 0.104 |
| AATTCTAG | 0.0261 |
| CAAGCAAC | 0.111 |
| ACCGAAGA | 0.0139 |
| CTCGGCAA | -0.00099 |
| CCTCCTTC | -0.234 |
| AAAGAAGC | 0.0805 |
| CCAAGCGC | -0.0338 |
| ATGTGAAT | 0.124 |
| AAATCCAT | 0.29 |
| AGCTACAG | -0.113 |
| AGTTTACA | 0.118 |
| ATCCGGCG | -0.0357 |
| ATACGGAT | 0.121 |
| ACAGCGCA | -0.0611 |
| ACAATTGG | -0.0674 |

| Sequence | PBM E-score |
| --- | --- |
| GAGCTTGC | -0.257 |
| AACATTTC | 0.123 |
| AGAGAGAC | -0.143 |
| GCGAATTA | 0.241 |
| GACGTGGA | -0.0188 |
| AAGTAGCC | -0.116 |
| GGTAATCA | 0.189 |
| TAAAAGGA | 0.124 |
| CTTGCGTC | -0.128 |
| CCGACTCC | -0.157 |
| GAGCCGCA | -0.0891 |
| CTACCCCC | -0.321 |
| CCGACCGA | -0.161 |
| TCGCGGAA | -0.0286 |
| GAATCTGC | -0.0595 |
| GGACTATA | 0.0794 |
| CGAATTGC | 0.131 |
| AGGTACCG | -0.0762 |
| GGACTGCC | -0.28 |
| ATTAGCAC | 0.153 |
| CCGGGAAC | -0.0983 |
| ATTCTTAA | -0.147 |
| CAGCACTC | -0.128 |
| ATCGGGTC | 0.131 |
| CGTCTTTA | 0.184 |

| Sequence | PBM E-score |
| --- | --- |
| GCGACACC | -0.161 |
| GATTTTGC | 0.0038 |
| CCACCGGC | -0.272 |
| ACCCCTTC | -0.182 |
| CATCGCCG | -0.0138 |
| CCCTTGCC | -0.0957 |
| GAGTTATA | 0.147 |
| AGGATAGG | 0.00943 |
| GGCGAGGA | -0.17 |
| TCGTCAGA | -0.102 |
| GCCATACC | -0.214 |
| CGGACTAG | -0.101 |
| CCCTTTTA | -0.231 |
| ACTGATCT | 0.105 |
| GAGGACAC | -0.00918 |
| ACCTCCAC | -0.0474 |
| ATGTGGTA | 0.148 |
| CGTTAGAG | -0.113 |
| GCGAGAGA | -0.0815 |
| GCTATCCA | -0.0873 |
| GCGGCAAC | -0.0289 |
| ACATGCGA | -0.0823 |
| GGAGGCAA | -0.245 |
| CAGCGAAC | -0.0135 |
| AGGTCGAG | -0.13 |

| Sequence | PBM E-score |
| --- | --- |
| GTGTCCCA | -0.194 |
| GGCACATA | 0.0174 |
| AGAAGGGC | -0.17 |
| ATCAGGGG | -0.0789 |
| GCGCAATA | 0.0165 |
| CGTTGCCA | 0.0873 |
| ATCGATTC | 0.111 |
| GGGCTGAA | 0.0423 |
| ATCGGCTG | -0.136 |
| AACGCAGA | -0.0761 |
| CGTGGACC | -0.305 |
| AGTTTTTC | 0.118 |
| AGAGATAA | 0.169 |
| CACACACG | 0.0835 |
| GTAAGAAC | 0.133 |
| CTCGTAAC | 0.177 |
| AATTTCAA | 0.171 |
| ACAAACCT | 0.193 |
| CCATCAGG | -0.31 |
| ATATAAGG | 0.252 |
| TATCACGA | 0.0641 |
| ACGTCGCA | -0.015 |
| ACTGGGCA | -0.157 |
| CGGGCACG | -0.112 |
| AACCTTCT | -0.133 |

| Sequence | PBM E-score |
| --- | --- |
| GTAATATA | 0.354 |
| CACCACAA | 0.0629 |
| CCGCTAGG | -0.128 |
| GTATGCTA | -0.0442 |
| CCCGGATA | 0.00459 |
| CTCTCATC | -0.152 |
| CGTCCACA | 0.0252 |
| CCGCCGCA | -0.0911 |
| CGGATCAA | 0.0957 |
| GTCCGACA | 0.0331 |
| GGGCGTTA | -0.0517 |
| AGCGGAGC | -0.239 |
| TAGTCTGA | -0.007 |
| CGGACACC | -0.242 |
| CAGGAGGG | -0.286 |
| GTCCCATA | -0.0701 |
| ATGATTTA | 0.202 |
| ACACCGAC | -0.143 |
| CATCGGGA | -0.0122 |
| GGCAAATA | 0.158 |
| GGAACACC | -0.0659 |
| AGAACTAA | 0.0761 |
| GACCCTCC | -0.0628 |
| TCAACGCA | 0.128 |
| ATCGACGG | -0.0561 |

| Sequence | PBM E-score |
| --- | --- |
| CTTCCCAC | 0.0504 |
| GCAACCAA | 0.0989 |
| CGTAGAGC | 0.0751 |
| CCATTCGA | -0.0112 |
| GACGGTGA | -0.0769 |
| ACCCTAAT | -0.133 |
| ACGGGTTC | -0.142 |
| CTCCGAGC | -0.0623 |
| CATAATTA | 0.316 |
| AAGATGTA | 0.144 |
| TAAGACAA | 0.187 |
| GGCTCTAC | -0.176 |
| GGCTCAAC | -0.164 |
| AGCGGGTA | -0.0987 |
| CGTCTTAC | -0.0666 |
| CCCTTACG | -0.128 |
| CCGAAATC | 0.0889 |
| CATATCTA | 0.189 |
| TGTGCAAA | 0.0609 |
| AGACTTGA | -0.149 |
| GCATGCGC | 0.118 |
| AGTACAAT | 0.209 |

A second format for some results above:
Sequence	PBM E-score
GACGGGAA	-0.00643
AGGATACC	-0.0219
ATTGGCTA	0.104
ATTAGCAC	0.153
AGGATAGG	0.00943
CCCGGATA	0.00459
